Out of some 52,000 sequences screened, about 210 (0.4%) were called active.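 How the source made its calls: active means gene whose silencing raises cell survival under the drug, median off-target-corrected z-score across its silencing RNAs 2 or more; inactive means the rest.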 Some of the results follow.
Test: Resistance to Poly (ADP-Ribose) Polymerase inhibitor: Gene Identification via Genome-wide siRNA Screen
Conditions: mouse BRCA2 R2336H ES cells, olaparib, CellTiter-Glo viability; stronger effect = higher value
Method in brief: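 Genome-wide siRNA screen (3 siRNAs/gene, 20 nM) in mouse ES cells carrying hypomorphic BRCA2 R2336H; olaparib 500 nM added 48 h post-transfection, CellTiter-Glo viability 72 h later. Normalized to plate-median negative control; MAD z-scores, gene median, seed-adjusted.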

Sequence | z-score
CCCUCUCCUAUUCUACAUGTT against Arf3 | inactive: 0.284
GCGUAGCCCUCAUAAGUCUTT against 2010007H12Rik | inactive: -0.551
CGGACGAUUCGUGUCAAUUTT against Ppie | inactive: 0.103
CGAACCGAACACAUAUAAATT against Scnn1a | inactive: 1.18
GGCCCAGCAGACAACUUUATT against Sgca | inactive: -0.336
CGGUCUGAACUACUGUGUGTT against 6230417E10Rik | inactive: -0.858
GGGAUCAAAUGUCUUUCCUTT against Wdr19 | inactive: 0.237
GGCCCUUCCAGAAGAUACATT against Speer3 | inactive: -0.444
CCAUACCAAUGAAUGCCUCTT against Tnfrsf6 | inactive: -0.112
GGUUUUUGAGUUUCUGAUUTT against AI315068 | inactive: 0.851
GGUUAUGGAAGAAAUUGCUTT against Tekt1 | inactive: 0.742
CGAUCCAACCAGAUGAACATT against Ralgps1 | inactive: 0.505
CCUUUAAAAGUACCAACCCTT against Eppb9 | inactive: -0.664
GCACUGUUCUCAAAGUUAATT against Ddx3x | inactive: -0.932
GCGUGAAAUGGAUGAUCAATT against 2310028N02Rik | inactive: -2.19
GGUAUGACCUCAUUCGGCATT against 6030441H18Rik | inactive: -0.0649
GGGCAGUGCUUAUUAUGCUTT against 1500005A01Rik | inactive: 0.438
GGCCACAGUAAUGGGAAAUTT against Cga | inactive: -1.08
GCCACCGAACCUAUAAAGCTT against Scd4 | inactive: 0.638
GGAUACCCUGGAGUUUAUATT against Tessp2 | inactive: 0.0368
CCAGAUUCCUCUUGGCCGATT against 6330409N04Rik | inactive: 1.33
CCUAACUUCAGAACUGAAATT against Sh3gl3 | inactive: 0.442
CCACGAGCAUUGAAAACCUTT against Otx3 | inactive: 0.535
CCUGUGACUCUAUCCAUCATT against Dsg1c | inactive: -0.844
CGAAAGUGAUCUUUGGAGCTT against Fpr-rs6 | inactive: -0.551
GGAAGUCGCUUGGAGUUCUTT against Sh2bpsm1 | inactive: 0.192

Sequence | z-score
GUGUCUGUUGGAAAGCAGATT against 2310067B10Rik | inactive: -1.57
GGAAGAAAGUGAGCCUUGUTT against Senp6 | inactive: -0.45
GGGACAAUAACCUGAUGCUTT against V1rh10 | inactive: -0.664
CCAUACUGUCAUAGCCCAATT against Olfr646 | inactive: -1.58
GGAUCAAGUGGCUGAUUUGTT against 2700084L22Rik | inactive: 1.53
CCAUUCCUUUAGAUUCGUUTT against Crsp7 | inactive: -0.547
GGCUACAAGGAGAAGUUUGTT against Traf3 | inactive: 1.64
CGGAAAGGAGCUAAAUGGCTT against Boc | inactive: 0.653
CCGUUUAUUUAUCAGCUGGTT against Ssb4 | inactive: 0.869
GGAAGAAAAAGAUGAGAAATT against Hrc | inactive: 2.11
GCCUUUGUGGACCAUCCAATT against Thy1 | inactive: 0.438
GGCCUAUUUUAUCCAUAGUTT against Olfr623 | inactive: 0.481
CCUUCAAACCUUUAAGCUUTT against Kcnk13 | inactive: 0.931
GGACUACGAAUACCCAUCGTT against Cck | inactive: 0.0931
CGAGCCUCUGUGAUAUCCATT against Cst11 | inactive: 1.28
GCAAUAUUUGGGCUAUUAUTT against Ss18 | inactive: -3
GUGACACUGCUGGGAAACATT against Olfr459 | inactive: -2.28
GGGAACAUGCUCAUUGCAGTT against Olfr96 | inactive: -1.26
GCAGGAUUAUGACACGUAUTT against Dgkq | inactive: 0.445
GGUUUUUAAGGCUGUUUACTT against 1600012K10Rik | inactive: 0.562
GGUCCAGGUGACAAUAAAUTT against 2310076O21Rik | inactive: -1.04
GGAACAAGAAACCACAAUGTT against Agpat1 | inactive: 0.257
GGCUUUAAUGCCUGUAUUATT against Ilvbl | inactive: -0.614
GGGUACAAAACUUGAACUUTT against 2700085M18Rik | inactive: -0.398
GGGAUUAAGGAUAAAGUUGTT against Usp28 | inactive: -0.42
GGACUUGGUUUAUGAAACATT against Kif9 | inactive: -1.97

Look-ups from the entries so far.
Under z-score, CCAGAUUCCUCUUGGCCGATT against 6330409N04Rik is listed with inactive: 1.33
Under z-score, CGAGCCUCUGUGAUAUCCATT against Cst11 is listed with inactive: 1.28
Under z-score, CGAAAGUGAUCUUUGGAGCTT against Fpr-rs6 is listed with inactive: -0.551
Under z-score, GGUUUUUAAGGCUGUUUACTT against 1600012K10Rik is listed with inactive: 0.562

(continued)

Sequence | z-score
GGCGACAGCUAAGUGUUGGTT against Rai3 | inactive: -0.83
GGCAAGUAUGUGUCCUUUGTT against Fhl3 | inactive: 1.81
GGAGGUGAUGCAGAUGCUGTT against Gpi1 | inactive: -1.67
GGCAGAUUCUAAAUAUAGCTT against Itga9 | inactive: 2.36
GGCUACCCAGGGAAUCAAGTT against Snapc4 | inactive: 0.302
GCAAGAUUUAUCCCAGUCGTT against Rnf2 | inactive: -1.54
GGCUAAAGGUGUUGAUUUUTT against Slitrk6 | inactive: 0.236
CCAGACCAUUAACUUGAUUTT against Lsm8 | inactive: -0.917
GGACCCAGUCAUCUAGUAUTT against Elmo2 | inactive: 0.602
CCACGGGAGACAAGAUUCUTT against Hmbs | inactive: 1.49
GGACCUUCCUACGAGAAAATT against 2410018G23Rik | inactive: -1.34
GGGAUCCUGGAAAUUGUAATT against A930014I12Rik | inactive: -0.536
GCUGCUUAAUGCCAGGCGATT against Snapap | inactive: 1
GCGCAUUAAGGCAGAAAAGTT against Chaf1a | inactive: -2.76
GCUAUGACGAUUUCCGUUCTT against Snx26 | inactive: 0.306
GGUCAGGCUUAUGAAUAUUTT against 2700029E10Rik | inactive: -1.26
GCUCCUAAAACAUGAGAAUTT against Cdk9 | inactive: -1.75
GCCAGAAAAGUACCACCAGTT against Slc35f4 | inactive: -1.32
GGUAAUGAAUAGGAAACUCTT against Ostm1 | inactive: 0.135
AAUGACCUUGACAACAUUUTT against Gm1705 | inactive: 0.772
GCACUUACUCUUCAACGGGTT against 1600012F09Rik | inactive: 1.45
GGUGACCUAUGCAUAUAUCTT against D5Ertd606e | inactive: 0.327
CCAGGAAGUUACAAUUCAATT against Ccpg1 | inactive: 1.46
GGCUGUCCGGUUAAAUCCATT against Ifit1 | inactive: 0.72
CCCUGGUCAAUCUUUUCCGTT against 2610033C09Rik | inactive: 2.05
GCUCACUGAAUCUCUACAUTT against Amph | inactive: -0.55

Sequence | z-score
GGAAGUCCGUGUUAAGAUUTT against Adh7 | inactive: -0.468
GGGAUACUUUUUAUUCAGGTT against Nmu | inactive: 0.771
GGGAACAGGUUACAUUCAUTT against Gm457 | inactive: -0.681
GCUACACCCUCUGUGAGUUTT against BC035295 | inactive: 0.263
CGUCAAUUCACACCAUUCATT against Gsk3a | inactive: -1.77
GGGUACCUCGUGGUACAUUTT against Rapgef3 | inactive: 2.5
GCUUUUCGGGCAGGAGAGUTT against 1700034I23Rik | inactive: -1.17
GGGAAGUGAGACAUGCUGUTT against Zfp278 | inactive: 1.2
GGCAAUCAUGUGGACUUCATT against C230071H18Rik | inactive: -0.981
CCAGCUAUGAUUUACAUCUTT against Tdpoz1 | inactive: -0.765
GGCAAAAUAUUGCACAGCGTT against Tsga10 | inactive: 0.132
GCAUCGACAAAUGAAUUGGTT against 2610022G08Rik | inactive: 0.497
GGCAACUCUCGAAUCUUUUTT against Dorz1 | inactive: 0.913
GGUGAUGAUCUUGUGCCACTT against 5830458K16Rik | inactive: -0.631
GGUUAUUCCUAGCUUUAGCTT against V1ri8 | inactive: -0.31
GGAGUCAAGAUCAUCUUCCTT against Tbc1d10 | inactive: -0.361
GGGAAUUUUGGAAGAGUCUTT against F630003A18Rik | inactive: -1.19
GGCUUUUAAGGUCAUCCCUTT against Bysl | inactive: -1.03
GGAAGUCUAUGGUUUUUAGTT against Csnk2b | inactive: -0.512
GCCAGAAAGCGUGUCAGAUTT against Hddc2 | inactive: -0.909
CCUAGAAUUCAUGGAAAAUTT against Olfr1196 | inactive: -0.834
GGAGCUCCACCCUUAUUCATT against Zfp113 | inactive: 0.779
GGUGAUUUUGUUGACAUAATT against C80913 | inactive: -1.71
GGAUGUUUUCCCGACAAGATT against Angptl1 | inactive: 1.52
GCAGUGAACCGUAUUGGACTT against Ncam1 | inactive: 0.536
GGGCUCUUCUCAUUCUAUATT against Olfr551 | inactive: 0.22
